Values from PubChem BioAssay AID1671195 (Yale University, 2021).

Screen: 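Regulators of LDL receptor activity judged by labelled LDL uptake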 (primary screen)
Cells: human Huh7 hepatoma cells
Knock-down reagent: siRNA pool against human genes, 18 nM
Time to read-out: about 2 to 2.5 days of knockdown, then 8 h LDL uptake
Treatment: DiI-labelled LDL at 30 µg/ml for 8 h, in lipoprotein-deficient serum medium
Read-out: 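Fluorescent LDL signal imaged in cells, scaled to the plate median, robust z-score for each replicate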
Reading the numbers: robust z-score: higher = more LDL uptake after knockdown
Hit rule: 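Active when two or more replicates show a robust z-score above 2 or below -2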
The whole screen tested about 22,000 reagents; shown is a random part of them. In the full data, about 1,510 (6.9%) got an active call. 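Active includes knockdowns raising or lowering LDL uptake; positive z-scores mean more uptake, negative mean less.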 Entries without a mark were called inactive. No sequences are given here.

The first 4 entries as a preview:
gene symbol	robust z-score, replicate 1	robust z-score, replicate 2	robust z-score, replicate 3
NAPB	1.55	1.98	0.85
ARID5B	0.636	0.262	0.698
TM2D1	-0.373	-0.771	0.316
DRD2	-0.847	0.582	-0.541

The list itself, repeating the preview:
gene symbol	robust z-score, replicate 1	robust z-score, replicate 2	robust z-score, replicate 3
NAPB	1.55	1.98	0.85
ARID5B	0.636	0.262	0.698
TM2D1	-0.373	-0.771	0.316
DRD2	-0.847	0.582	-0.541
TCF7L1	-0.0625	0.0242	-0.149
SLC13A2	0.146	0.628	0.356
ZKSCAN8	-0.271	-0.628	-0.452
AKT2	-0.406	-0.584	-0.788
LOC128499 (retired record)	-0.404	0.423	-0.312
CCDC172	0.113	-0.505	-0.381
DEFB136	4.22 (active)	3.65	5.04
XTBD1P1	-0.821	-0.859	-0.873
HSPB8	-1.32	-1.26	-1.42
PLP1	0.772	-0.0479	0.851
PFDN6	-2.18	-1.07	-1.88
NUP35	0.427	-0.393	-0.18
FMOD	-0.853	-1.51	-1.34
SCN5A	-0.573	-0.59	-0.407
GNPAT	-0.306	0.284	0.418
MIR22HG	-0.0246	0.259	0.46
DOCK9	-0.921	1.14	-1.53
NPM1P22	-0.375	-0.244	-0.0102
SFRP2	2.57 (active)	2.16	0.404
LOC442652 (retired record)	0.281	-0.494	-0.733
ABHD13	1.03	-0.0756	-0.00731
MLLT11	-0.29	1.2	-1.39
SOST	-0.205	0.0385	-1.06
DGAT1	-0.0825	-0.857	-0.69
PSAP	0.19	1.22	0.108
LOC387643 (retired record)	-0.114	0.209	-0.0283
KNL1	-0.816	-0.549	-0.117
LOC442093 (retired record)	1.61	1.66	2.06
SLC25A47	0.979	1.03	1.16
UOX	0.44	0.377	0.485
LOC388760 (retired record)	1.79	1.64	1.67
CYSLTR2	0.271	0.846	-0.0882
FADS1	-0.731	-1.28	-0.111
RDUR	-1.2	-1.45	-1.18
KRTAP5-2	0.866	1.73	1.3
LOC388530 (retired record)	-0.5	-0.619	-0.536
TAC1	0.00632	-0.494	0.218
RRAGB	0.919	-0.667	0.426
BARD1	-0.688	-0.303	-0.0653
CLN5	-1.15	-0.615	-1.3
TSPAN7	1.19	0.963	0.784
ADCK2	-0.352	-0.647	-1.03
